According to US9259432B1, “Composition and methods for targeted delivery of a therapeutic compound to the brain or spinal cord of a subject for treatment of neurodegenerative diseases” (Parminder J. S. Vig, priority 2011, dated 2016):
Some of these results come from one statement about several compounds together.

Test: Turbidity assay for transition temperature (Tt)
Type: physicochemical
Details: 5 μM to 40 μM in DMEM media containing 10% fetal bovine serum, heated from 25° C. to 75° C.; Tt = 50% of maximum aggregation

Synb1-ELP-TRTK: thermally responsive S100B inhibitory polypeptide: Synb1 cell penetrating peptide, elastin-like polypeptide (ELP) and TRTK12 peptide fused (RGGRLSYSRRRFSTSTGRTRTKIDWNKILS; left off: small tags and cut ends)
transition temperature: 39 to 42 °C
